# Results deposited as PubChem BioAssay AID1224828 (NIAID, 2016).
# Test: 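Regulators linking TLR4 signalling to p65 nuclear translocation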 (primary screen)
# Cells: mouse RAW264.7 G9 macrophage reporter cells (GFP-p65, Tnf promoter-mCherry)
# Knock-down reagent: siRNA pool against mouse genes, 100 nM
# Time to read-out: 2 days siRNA transfection, then 40 min LPS before fixation
# Treatment: LPS (Salmonella minnesota R595) at 10 ng/ml
# Measured: 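Microscopy ratio of nuclear to perinuclear-ring GFP-p65 signal, scaled to the plate median; gene score is the average of two replicate robust z-scores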
# Scale: p65 translocation robust z-score: higher = more nuclear NF-kappaB p65 after LPS than the plate median; nuclear/cytoplasmic p65 ratio: higher = more nuclear NF-kappaB p65
# Active means: 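Called active when z exceeds 3.3 or falls under -1.56 (median of Tlr4 controls), giving activity score of at least 50; no calls for control wells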
# Meaning of the calls: active = hit (p65 shift raised or lowered); inactive = no clear change
# In all, the deposit lists about 17,000 reagents; below is an unselected part. 762 of all reagents (4.5%) were called active. 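Active calls include both raised and lowered p65 entry, mostly lowered; wells with fewer than 50 cells lack a z-score.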 Raw values are not corrected between plates.
Gene,p65 translocation robust z-score,"nuclear/cytoplasmic p65 ratio, rep 1","nuclear/cytoplasmic p65 ratio, rep 2",low cell count flag,call
"Sptbn4 (spectrin beta, non-erythrocytic 4)",0.9,1.6,1.28,enough cells to score,inactive
Psma4 (proteasome subunit alpha 4),,2.11,1.17,fewer than 50 cells per well; well left out of scoring,inactive
Brms1l (breast cancer metastasis-suppressor 1-like),1.4,1.61,1.73,enough cells to score,inactive
Ocm (oncomodulin),-0.18,1.88,1.34,enough cells to score,inactive
Zfp39 (zinc finger protein 39),1.29,1.61,1.38,enough cells to score,inactive
Psd2 (pleckstrin and Sec7 domain containing 2),,1.49,1.21,fewer than 50 cells per well; well left out of scoring,inactive
Ncr1 (natural cytotoxicity triggering receptor 1),1.33,1.64,1.49,enough cells to score,inactive
Tmem260 (transmembrane protein 260),1.53,1.73,1.66,enough cells to score,inactive
Snx8 (sorting nexin 8),,1.23,1.26,fewer than 50 cells per well; well left out of scoring,inactive
Colgalt2 (collagen beta(1-O)galactosyltransferase 2),0.15,1.58,1.75,enough cells to score,inactive
"Alpi (alkaline phosphatase, intestinal)",-0.06,1.61,1.6,enough cells to score,inactive
Dusp2 (dual specificity phosphatase 2),-0.65,1.6,1.29,enough cells to score,inactive
Or4a81 (olfactory receptor family 4 subfamily A member 81),1.1,1.73,1.61,enough cells to score,inactive
Hpvc-ps (retired record),-1.58,1.51,1.33,enough cells to score,active
"Thy1 (thymus cell antigen 1, theta)",-0.22,1.47,1.5,enough cells to score,inactive
Ephb2 (Eph receptor B2),1.69,2.01,1.56,enough cells to score,inactive
Ccr4 (C-C motif chemokine receptor 4),0.72,1.58,1.71,enough cells to score,inactive
Megf6 (multiple EGF-like-domains 6),-0.82,1.34,1.27,enough cells to score,inactive
Klk15 (kallikrein related-peptidase 15),-0.51,1.06,1.37,enough cells to score,inactive
Chtop (chromatin target of PRMT1),-0.79,1.3,1.22,enough cells to score,inactive
Fzd6 (frizzled class receptor 6),0.29,1.54,1.63,enough cells to score,inactive
"Xpot (exportin, tRNA (nuclear export receptor for tRNAs))",0.76,1.63,1.6,enough cells to score,inactive
Tac2 (tachykinin 2),-0.45,1.45,1.35,enough cells to score,inactive
Rnf111 (ring finger protein 111),-0.43,1.3,1.22,enough cells to score,inactive
Ecrg4 (ECRG4 augurin precursor),-0.06,1.54,1.43,enough cells to score,inactive
"Tnnc1 (troponin C, cardiac/slow skeletal)",1.15,1.62,1.74,enough cells to score,inactive
"Rhpn2 (rhophilin, Rho GTPase binding protein 2)",-0.52,1.29,1.21,enough cells to score,inactive
Hsd17b14 (hydroxysteroid (17-beta) dehydrogenase 14),-1.57,1.39,1.16,enough cells to score,active
Or51a24 (olfactory receptor family 51 subfamily A member 24),0.37,1.49,1.29,enough cells to score,inactive
Clspn (claspin),-0.6,1.36,1.33,enough cells to score,inactive
Hhipl2 (hedgehog interacting protein-like 2),,1.17,1.16,fewer than 50 cells per well; well left out of scoring,inactive
"Fam181b (family with sequence similarity 181, member B)",0.71,1.44,1.67,enough cells to score,inactive
Cdk12 (cyclin dependent kinase 12),1.72,2.09,1.5,enough cells to score,inactive
Med12 (mediator complex subunit 12),-1.56,1.24,1.35,enough cells to score,inactive
Pcmtd2,0.26,1.45,1.44,enough cells to score,inactive
4930449I24Rik (RIKEN cDNA 4930449I24 gene),,1.57,1.42,fewer than 50 cells per well; well left out of scoring,inactive
Galnt3 (polypeptide N-acetylgalactosaminyltransferase 3),,1.63,1.29,fewer than 50 cells per well; well left out of scoring,inactive
Hmgb4 (high-mobility group box 4),,1.35,1.78,fewer than 50 cells per well; well left out of scoring,inactive
Ccdc73 (coiled-coil domain containing 73),-0.1,1.13,1.29,enough cells to score,inactive
Foxd3 (forkhead box D3),0.48,1.42,1.5,enough cells to score,inactive
Defb35 (defensin beta 35),-1.88,1.23,1.35,enough cells to score,active
Apobec3,-0.27,1.58,1.58,enough cells to score,inactive
Slc6a20a,0.4,1.47,1.29,enough cells to score,inactive
"Ncaph (non-SMC condensin I complex, subunit H)",-0.77,1.34,1.35,enough cells to score,inactive
Rpap1 (RNA polymerase II associated protein 1),0.25,1.38,1.25,enough cells to score,inactive
Stx1a (syntaxin 1A (brain)),-0.26,1.56,1.47,enough cells to score,inactive

A portion taken from the entries so far, for reference:
Gene,p65 translocation robust z-score,"nuclear/cytoplasmic p65 ratio, rep 1","nuclear/cytoplasmic p65 ratio, rep 2",low cell count flag,call
Defb35 (defensin beta 35),-1.88,1.23,1.35,enough cells to score,active
Apobec3,-0.27,1.58,1.58,enough cells to score,inactive
Slc6a20a,0.4,1.47,1.29,enough cells to score,inactive
"Ncaph (non-SMC condensin I complex, subunit H)",-0.77,1.34,1.35,enough cells to score,inactive
Rpap1 (RNA polymerase II associated protein 1),0.25,1.38,1.25,enough cells to score,inactive

Continued:
Gene,p65 translocation robust z-score,"nuclear/cytoplasmic p65 ratio, rep 1","nuclear/cytoplasmic p65 ratio, rep 2",low cell count flag,call
Ifnl3 (interferon lambda 3),,1.59,1.16,fewer than 50 cells per well; well left out of scoring,inactive
Pgr (progesterone receptor),0.5,1.55,1.49,enough cells to score,inactive
Tsga13 (testis specific gene A13),0.8,1.44,1.37,enough cells to score,inactive
Kdm1a (lysine (K)-specific demethylase 1A),0.19,1.5,1.38,enough cells to score,inactive
Gfpt2 (glutamine fructose-6-phosphate transaminase 2),-0.28,1.53,1.6,enough cells to score,inactive
Rasgrf1 (RAS protein-specific guanine nucleotide-releasing factor 1),-0.65,1.43,1.42,enough cells to score,inactive
Gpr141b (G protein-coupled receptor 141B),0.66,1.28,1.62,enough cells to score,inactive
Or10g9b (olfactory receptor family 10 subfamily G member 9B),0.21,1.48,1.26,enough cells to score,inactive
Zfp768 (zinc finger protein 768),-1.86,1.36,1.53,enough cells to score,active
Pecr (peroxisomal trans-2-enoyl-CoA reductase),0.33,1.43,1.52,enough cells to score,inactive
Casq2 (calsequestrin 2),-0.23,1.54,1.62,enough cells to score,inactive
Bola2 (bolA family member 2),-0.9,1.44,1.3,enough cells to score,inactive
Tiaf2 (TGF-beta1-induced anti-apoptotic factor 2),-0.54,1.25,1.17,enough cells to score,inactive
Dkk2 (dickkopf WNT signaling pathway inhibitor 2),-0.4,1.37,1.35,enough cells to score,inactive
Il17re (interleukin 17 receptor E),,1.24,1.39,fewer than 50 cells per well; well left out of scoring,inactive
Tenm4 (teneurin transmembrane protein 4),-1.64,1.56,1.21,enough cells to score,active
Ehd1 (EH-domain containing 1),0.41,1.56,1.38,enough cells to score,inactive
"Tnfrsf9 (tumor necrosis factor receptor superfamily, member 9)",-0.36,1.48,1.46,enough cells to score,inactive
Crisp1 (cysteine-rich secretory protein 1),-1.73,1.41,1.41,enough cells to score,active
Or8g35 (olfactory receptor family 8 subfamily G member 35),2.28,1.7,1.5,enough cells to score,inactive
Nup93 (nucleoporin 93),0.22,1.86,1.46,enough cells to score,inactive
Arsj (arylsulfatase J),-0.2,1.29,1.63,enough cells to score,inactive
Stub1 (STIP1 homology and U-Box containing protein 1),,1.69,1.47,fewer than 50 cells per well; well left out of scoring,inactive
Slc26a8,0.62,1.47,1.34,enough cells to score,inactive
Wdtc1 (WD and tetratricopeptide repeats 1),-1.68,1.48,1.32,enough cells to score,active
Sgsh (N-sulfoglucosamine sulfohydrolase (sulfamidase)),-1.34,1.37,1.35,enough cells to score,inactive
Slc13a3,0.44,1.41,1.35,enough cells to score,inactive
"Rab7b (RAB7B, member RAS oncogene family)",2.03,1.59,1.77,enough cells to score,inactive
"Etfb (electron transferring flavoprotein, beta polypeptide)",-0.81,1.3,1.31,enough cells to score,inactive
